This passage reports binding results from PMC6303367.

Chains of the proteins cited; added tags and fusions are not shown. Lines headed by an entry give the natural chain unless they say otherwise; changes in a name come on top.
UniProt P04050: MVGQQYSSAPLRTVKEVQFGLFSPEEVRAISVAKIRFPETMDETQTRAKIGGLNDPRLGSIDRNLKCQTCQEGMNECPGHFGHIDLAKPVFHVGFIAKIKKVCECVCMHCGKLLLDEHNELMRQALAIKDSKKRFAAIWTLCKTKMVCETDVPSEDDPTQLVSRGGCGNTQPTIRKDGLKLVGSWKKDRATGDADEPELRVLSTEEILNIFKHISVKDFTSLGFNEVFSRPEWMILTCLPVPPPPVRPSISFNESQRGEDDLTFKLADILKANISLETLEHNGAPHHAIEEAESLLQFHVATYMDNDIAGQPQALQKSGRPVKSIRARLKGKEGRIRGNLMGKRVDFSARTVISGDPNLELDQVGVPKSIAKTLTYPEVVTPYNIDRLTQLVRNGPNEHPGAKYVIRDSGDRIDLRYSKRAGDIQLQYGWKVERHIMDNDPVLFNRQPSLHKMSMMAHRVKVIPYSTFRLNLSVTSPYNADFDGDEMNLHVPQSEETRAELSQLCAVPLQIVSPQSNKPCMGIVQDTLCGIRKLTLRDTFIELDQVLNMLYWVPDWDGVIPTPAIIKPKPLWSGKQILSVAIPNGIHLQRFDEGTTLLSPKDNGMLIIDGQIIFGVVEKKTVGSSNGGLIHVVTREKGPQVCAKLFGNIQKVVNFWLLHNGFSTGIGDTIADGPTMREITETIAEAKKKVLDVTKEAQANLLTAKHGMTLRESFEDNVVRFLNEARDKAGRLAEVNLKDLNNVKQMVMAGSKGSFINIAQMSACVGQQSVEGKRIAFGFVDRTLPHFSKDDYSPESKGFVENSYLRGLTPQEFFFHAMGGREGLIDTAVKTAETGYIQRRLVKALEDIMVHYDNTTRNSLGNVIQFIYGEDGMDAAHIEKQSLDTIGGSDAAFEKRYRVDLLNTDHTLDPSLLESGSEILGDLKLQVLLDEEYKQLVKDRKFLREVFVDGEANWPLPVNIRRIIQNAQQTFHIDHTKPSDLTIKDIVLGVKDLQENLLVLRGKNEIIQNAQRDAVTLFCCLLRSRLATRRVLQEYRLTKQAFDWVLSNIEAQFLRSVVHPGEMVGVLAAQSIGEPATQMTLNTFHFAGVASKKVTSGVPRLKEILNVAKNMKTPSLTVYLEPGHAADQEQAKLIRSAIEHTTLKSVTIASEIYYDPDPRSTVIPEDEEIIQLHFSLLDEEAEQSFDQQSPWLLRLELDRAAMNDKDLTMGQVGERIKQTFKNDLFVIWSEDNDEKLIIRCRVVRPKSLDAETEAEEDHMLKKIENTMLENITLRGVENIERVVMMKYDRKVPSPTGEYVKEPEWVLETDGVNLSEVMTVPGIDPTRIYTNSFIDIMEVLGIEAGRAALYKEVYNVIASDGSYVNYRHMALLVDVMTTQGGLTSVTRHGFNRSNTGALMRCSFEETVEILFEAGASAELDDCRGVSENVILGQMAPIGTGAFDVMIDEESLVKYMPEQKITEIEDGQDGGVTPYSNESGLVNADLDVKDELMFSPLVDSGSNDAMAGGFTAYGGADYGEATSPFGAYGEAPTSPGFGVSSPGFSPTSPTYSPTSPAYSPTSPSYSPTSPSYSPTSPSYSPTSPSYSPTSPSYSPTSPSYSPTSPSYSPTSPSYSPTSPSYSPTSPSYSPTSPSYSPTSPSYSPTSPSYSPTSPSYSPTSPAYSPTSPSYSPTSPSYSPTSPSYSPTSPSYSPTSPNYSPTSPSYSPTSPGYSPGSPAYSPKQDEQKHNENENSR

These are yes or no findings as the source states them, for the method shown. Tags and fused reporters may be left off the sequences shown.

The target in this assay is Saccharomyces cerevisiae RNA polymerase II (Saccharomyces cerevisiae) (UniProt P04050). Description: SEC; Pol II-extended NCP-RNA complex incubated with TFIIS (1:0.57, relative to Pol II) and 1 mM NTPs for 30 min at 30 °C, then Superose 6 Increase 3.2/300 in 100 mM NaCl, 3 mM MgCl2, 20 mM Na·HEPES pH 7.5, 4% (v/v) glycerol, 1 mM DTT; peak fractions analysed by SDS-PAGE; both purified.

B1: S. cerevisiae TFIIS with an N-terminal GST tag (protein, UniProt P07273 1-309)
chain: MDSKEVLVHVKNLEKNKSNDAAVLEILHVLDKEFVPTEKLLRETKVGVEVNKFKKSTNVEISKLVKKMISSWKDAINKNKRSRQAQQHHQDHAPGNAEDKTTVGESVNGVQQPASSQSDAMKQDKYVSTKPRNSKNDGVDTAIYHHKLRDQVLKALYDVLAKESEHPPQSILHTAKAIESEMNKVNNCDTNEAAYKARYRIIYSNVISKNNPDLKHKIANGDITPEFLATCDAKDLAPAPLKQKIEEIAKQNLYNAQGATIERSVTDRFTCGKCKEKKVSYYQLQTRSADEPLTTFCTCEACGNRWKFS
In the case of B1, the binding result is reported as “no binding”.
